Reference: US20050171008A1 (priority 2002, published 2005)

Test: general procedure: solution-phase peptide synthesis; DCCI/HOSu active ester; azide method; TPCK-trypsin enzymatic coupling

Substance	step yield (coupling step)	step yield (late stage modification step)
Z-Gly-Phe-Phe-Tyr-Lys (Boc) Obut	56%	–
ZGly-Phe-Phe-Tyr-OC2H5	87%	–
ZGly-Phe-Phe-Tyr-NHNH2	–	65%
Gly-Phe-Phe-Tyr-Lys(Boc)Obut	–	yield 93%
